Results reported in paper PMC7317005.
These are yes or no findings as the source states them, for the method shown. Binding seen in cells or lysates may run through a third protein. Some binding calls cover weakened binding; strength is not graded here.

Protein sequences, listed by entry. Tags and fused reporters are not part of them.
UniProt P37238: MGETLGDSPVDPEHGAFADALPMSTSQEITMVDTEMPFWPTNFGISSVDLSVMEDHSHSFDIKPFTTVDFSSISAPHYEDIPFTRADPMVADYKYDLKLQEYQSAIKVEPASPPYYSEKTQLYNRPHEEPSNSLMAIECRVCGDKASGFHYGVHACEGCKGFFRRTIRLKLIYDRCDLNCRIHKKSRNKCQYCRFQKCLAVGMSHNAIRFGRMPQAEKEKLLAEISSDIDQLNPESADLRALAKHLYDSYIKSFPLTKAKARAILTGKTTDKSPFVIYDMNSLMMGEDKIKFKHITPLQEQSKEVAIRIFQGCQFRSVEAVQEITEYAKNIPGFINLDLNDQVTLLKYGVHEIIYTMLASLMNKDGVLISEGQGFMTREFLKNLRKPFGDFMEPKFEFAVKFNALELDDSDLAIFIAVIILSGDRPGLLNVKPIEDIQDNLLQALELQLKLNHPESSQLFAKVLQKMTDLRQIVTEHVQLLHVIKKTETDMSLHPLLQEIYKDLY

Biological target: peroxisome proliferator-activated receptor γ (mouse (endogenous in splenic B cells)) (UniProt P37238)
Experiment: co-IP; whole-cell extracts of mouse B cells; IP with anti-PPARγ overnight at 4°C, protein A-Sepharose, IB with anti-p-STAT6; IP buffer 50 mM Tris-HCl pH 7.5, 150 mM NaCl, 1 mM EDTA, 0.5% NP-40; rabbit IgG as control antibody

binding: binds
B1: phosphorylated signal transducer and activator of transcription 6 (protein, UniProt P52633 1-837)
chain: MSLWGLISKMSPEKLQRLYVDFPQRLRHLLADWLESQPWEFLVGSDAFCYNMASALLSATVQRLQATAGEQGKGNSILPHISTLESIYQRDPLKLVATIRQILQGEKKAVIEEFRHLPGPFHRKQEELKFTTALGRLQHRVRETRLLRESLQQGAKTGQVSLQNLIDPPVNGPGPSEDLATMLQGTVGDLEATQALVLKRIQIWKRQQQLAGNGTPFEESLAGLQERCESLVEIYSQLQQEIGAASGELEPKTRASLISRLDEVLRTLVTSSFLVEKQPPQVLKTQTKFQAGVRFLLGLQFLGTSAKPPMVRADMVTEKQARELSLAQGPGTGVESTGEIMNNTVPLENSIPSNCCSALFKNLLLKKIKRCERKGTESVTEEKCAVLFSTSFTLGPNKLLIQLQALSLPLVVIVHGNQDNNAKATILWDNAFSEMDRVPFVVAERVPWEKMCETLNLKFMAEVGTSRGLLPEHFLFLAQKIFNDNSLSVEAFQHRCVSWSQFNKEILLGRGFTFWQWFDGVLDLTKRCLRSYWSDRLIIGFISKQYVTSLLLNEPDGTFLLRFSDSEIGGITIAHVIRGQDGSSQIENIQPFSAKDLSIRSLGDRIRDLAQLKNLYPKKPKDEAFRSHYKPEQMGKDGRGYVSTTIKMTVERDQPLPTPEPQMPAMVPPYDLGMAPDASMQLSSDMGYPPQSIHSFQSLEESMSVLPSFQEPHLQMPPNMSQITMPFDQPHPQGLLQCQSQEHAVSSPEPMLCSDVTMVEDSCLTQPVGGFPQGTWVSEDMYPPLMPPTEQDLTKLLLENQGEAGGSLGSQPLLQPSPYGQSGISLSHLDLRTNPSW
modifications: phosphotyrosine at 641 (detected with antibody to Phospho-STAT6 (Tyr641))
